These are yes or no findings as the source states them, for the method shown. In cells and extracts the contact can be indirect. Some results given as binding are weak or reduced against the parent protein; the word gives no strength.
Molecular target: T1, LATS2 wild type, transfected (UniProt Q9NRM7)
T1 sequence: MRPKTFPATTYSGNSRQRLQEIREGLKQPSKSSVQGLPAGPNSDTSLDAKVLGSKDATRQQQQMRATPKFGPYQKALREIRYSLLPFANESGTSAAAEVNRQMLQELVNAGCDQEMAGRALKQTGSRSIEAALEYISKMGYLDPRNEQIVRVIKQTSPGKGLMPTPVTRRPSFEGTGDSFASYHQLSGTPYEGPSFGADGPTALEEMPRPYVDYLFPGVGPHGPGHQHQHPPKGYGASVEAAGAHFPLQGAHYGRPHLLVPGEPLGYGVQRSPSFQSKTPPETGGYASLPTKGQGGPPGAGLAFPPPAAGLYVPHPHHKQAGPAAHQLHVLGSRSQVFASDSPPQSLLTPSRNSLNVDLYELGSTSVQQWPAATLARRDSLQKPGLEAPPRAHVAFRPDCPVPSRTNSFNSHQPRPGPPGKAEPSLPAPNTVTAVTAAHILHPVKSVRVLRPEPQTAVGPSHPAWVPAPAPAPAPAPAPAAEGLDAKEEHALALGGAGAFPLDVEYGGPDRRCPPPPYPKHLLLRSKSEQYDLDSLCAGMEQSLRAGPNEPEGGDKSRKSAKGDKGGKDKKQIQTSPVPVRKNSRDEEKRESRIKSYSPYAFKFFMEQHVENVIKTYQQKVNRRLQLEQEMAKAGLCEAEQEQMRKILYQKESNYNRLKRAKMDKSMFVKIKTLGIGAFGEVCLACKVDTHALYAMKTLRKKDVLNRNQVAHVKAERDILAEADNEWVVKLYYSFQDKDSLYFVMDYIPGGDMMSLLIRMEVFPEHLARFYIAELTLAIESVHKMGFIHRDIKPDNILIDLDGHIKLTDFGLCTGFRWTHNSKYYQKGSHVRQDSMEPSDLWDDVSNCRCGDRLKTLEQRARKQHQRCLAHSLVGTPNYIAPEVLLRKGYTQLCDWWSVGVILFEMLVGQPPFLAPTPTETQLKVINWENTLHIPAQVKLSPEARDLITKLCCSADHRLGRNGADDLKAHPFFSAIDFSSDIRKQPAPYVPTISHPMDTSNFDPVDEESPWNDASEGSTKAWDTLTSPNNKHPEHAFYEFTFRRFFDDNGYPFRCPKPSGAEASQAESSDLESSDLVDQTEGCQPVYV
Assay: pull-down; 293T cells stably transduced with shGFP or shWWP1, rescue with WT or C890A WWP1, transfected with the indicated DNAs; lysates pulled down with streptavidin agarose beads (SFB tag) (Fig 5A)

Sequences of proteins named here, by UniProt entry; tags and fusion partners are left off.
UniProt Q9Y2J4: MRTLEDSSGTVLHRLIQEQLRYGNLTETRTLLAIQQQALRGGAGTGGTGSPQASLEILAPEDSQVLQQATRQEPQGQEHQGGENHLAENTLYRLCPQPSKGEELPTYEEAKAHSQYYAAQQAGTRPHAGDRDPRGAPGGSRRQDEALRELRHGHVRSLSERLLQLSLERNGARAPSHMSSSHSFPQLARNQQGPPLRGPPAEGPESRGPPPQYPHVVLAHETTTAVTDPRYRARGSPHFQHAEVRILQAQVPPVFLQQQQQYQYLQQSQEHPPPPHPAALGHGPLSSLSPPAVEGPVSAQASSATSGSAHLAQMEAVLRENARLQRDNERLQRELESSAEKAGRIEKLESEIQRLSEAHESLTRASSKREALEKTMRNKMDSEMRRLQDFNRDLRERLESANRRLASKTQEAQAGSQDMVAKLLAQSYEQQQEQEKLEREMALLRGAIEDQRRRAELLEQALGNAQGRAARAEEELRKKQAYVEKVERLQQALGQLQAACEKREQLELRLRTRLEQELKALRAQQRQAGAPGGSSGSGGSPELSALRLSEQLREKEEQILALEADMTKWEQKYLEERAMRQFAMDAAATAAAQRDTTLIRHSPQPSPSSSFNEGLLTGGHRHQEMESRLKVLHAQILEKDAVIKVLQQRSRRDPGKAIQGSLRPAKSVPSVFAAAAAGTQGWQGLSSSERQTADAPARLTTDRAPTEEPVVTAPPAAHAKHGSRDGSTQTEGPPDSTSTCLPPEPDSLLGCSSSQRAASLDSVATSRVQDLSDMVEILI

Substance: AMOTL2 wild type, transfected (from UniProt Q9Y2J4 1-779)
- binding: binds
